Publication PMC3046128, “Systematic Two-Hybrid and Comparative Proteomic Analyses Reveal Novel Yeast Pre-mRNA Splicing Factors Connected to Prp19” (PLoS ONE, 2011)
Results are given in words; binding and its absence hold for the method and conditions named. For part of these data: In cells and extracts the contact can be indirect. Some binding calls cover weakened binding; strength is not graded here. Tags and fused reporters may be left off the sequences shown.

Tests used:
[1] = molecular target: T1, Urn1-GFP (S. cerevisiae) (S. cerevisiae) (UniProt Q06525); assay: co-IP; S. cerevisiae lysates of Aim4-Myc13 Urn1-GFP double tag and single tag strains; anti-Myc or anti-GFP immunoprecipitates, immunoblot
T1 sequence: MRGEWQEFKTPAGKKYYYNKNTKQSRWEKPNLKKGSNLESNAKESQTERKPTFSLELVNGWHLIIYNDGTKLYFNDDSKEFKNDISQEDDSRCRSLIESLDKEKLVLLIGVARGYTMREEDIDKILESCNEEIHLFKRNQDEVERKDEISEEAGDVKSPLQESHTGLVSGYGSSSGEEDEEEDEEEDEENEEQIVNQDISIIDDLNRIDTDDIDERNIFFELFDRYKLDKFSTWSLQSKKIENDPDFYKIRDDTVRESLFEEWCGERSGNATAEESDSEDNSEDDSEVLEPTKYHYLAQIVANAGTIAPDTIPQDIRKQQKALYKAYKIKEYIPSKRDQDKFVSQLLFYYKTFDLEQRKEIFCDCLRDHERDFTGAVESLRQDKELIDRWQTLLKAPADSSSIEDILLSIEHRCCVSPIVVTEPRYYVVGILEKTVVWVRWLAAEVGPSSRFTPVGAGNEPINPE

[2] = molecular target: MBP-ScPrp17 (S. cerevisiae) (UniProt P40968); assay: AUC; sedimentation velocity, 30,000 rpm, 22°C, 280 nm; Sedfit c(s) analysis; ScPrp19 constant with His6-ScUrn1 at 1∶1 or 1∶2.5 molar ratio; both purified
[3] = molecular target: His6-ScUrn1 (S. cerevisiae) (UniProt Q06525); assay: as above

B1: Aim4-Myc13 (protein, UniProt P38305 1-123)
chain: MDQKKDPSNNLTERRVSKVQRPNKKKVRNQVESLSRNLERNKEGQLLQTVSKGHLEADSGHSLGREKENGELGIRSIFYDKDWNPRGTAPSHYRNIPYNPATFKRRTEVQARLGNLENIKIPK
For B1, the binding [1] was “binds”.

B2: MBP-ScPrp17 (protein, UniProt P40968 1-455)
chain: MGLVDGYDTSSDSDLNFDEGKSVHEKKNGNLHEDTSYEPSSNNIHKRKSHFTKSELKRRRKTRKGDGPWGSWSSSDDETSQASETQKEDQDIFVHALAEDNLDSEQIEVEEVSHFYGKSEKDYQGRGYLYPPNDVDVDLREERISFRCYLPKKVIRNYPGHPEGTTALKFLPKTGHLILSGGNDHTIKIWDFYHDYECLRDFQGHNKPIKALRFTEDCQSFLSSSFDRSVKIWDTETGKVKTRLHLNSTPADVESRPTNPHEFIVGLSNSKILHYDDRVSENQGLVQTYDHHLSSILALKYFPDGSKFISSSEDKTVRIWENQINVPIKQISDTAQHSMPFLNVHPSQNYFCAQSMDNRIYSFSLKPKYKRHPKKIFKGHSSAGYGISLAFSGDGRYICSGDSKSRLFTWDWNTSRLLNNIKIPGNKPITQVDWHPQETSKVICSGAAGKIYVCD
For B2, the binding [2] was “no binding”.

B3: His6-ScUrn1 (natural protein, S. cerevisiae, UniProt Q06525 1-465, looked up)
chain: T1 sequence
notes: Urn1, S. cerevisiae (His6-ScUrn1 mass 55.1 kDa); the printed mass fits the whole protein; also called His6-Urn1; source: E. coli BL21 (pETDuet-1), co-expressed with ScPrp19, purified (Ni-NTA agarose, heparin agarose, gel filtration)
B3 was tested, and the binding [3] was “no binding”.
